Assay results published in publication PMC7819943, “Rice protein-binding microarrays: a tool to detect cis-acting elements near promoter regions in rice”.
This is one part of the list.

Target: T1, OsSMF1 (Oryza sativa, UniProt Q6ZLB0 1-436)
T1 sequence: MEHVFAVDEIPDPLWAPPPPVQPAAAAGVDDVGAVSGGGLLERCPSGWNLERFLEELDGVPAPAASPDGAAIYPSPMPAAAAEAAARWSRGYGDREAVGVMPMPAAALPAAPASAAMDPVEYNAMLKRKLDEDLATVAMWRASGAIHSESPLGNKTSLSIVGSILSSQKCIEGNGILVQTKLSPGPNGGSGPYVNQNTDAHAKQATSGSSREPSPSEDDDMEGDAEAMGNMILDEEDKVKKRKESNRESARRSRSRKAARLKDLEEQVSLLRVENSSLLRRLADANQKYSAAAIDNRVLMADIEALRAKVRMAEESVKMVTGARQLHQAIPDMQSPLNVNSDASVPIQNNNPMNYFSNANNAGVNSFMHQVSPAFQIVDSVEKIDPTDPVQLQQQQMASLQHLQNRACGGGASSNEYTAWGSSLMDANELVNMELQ
Assay: protein-binding microarray (RPBM); PBS, 2% BSA, 51.3 ng/ul salmon testes DNA, 50 uM zinc acetate, 200 nM TF, 25 C, 1 h; high values mean tight binding
Conditions: protein: recombinant; tags: N-terminal polyhistidine and DsRed monomer fusion (pET32a); chain copies: 2; label: CyDye5-dUTP incorporated in the synthesized complementary strand; 3' TTTTT single-stranded linker to array surface; dsDNA, one strand shown
How it was run: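 The binding signal for each feature is its fluorescence intensity in arbitrary units. An Axon 4000B scanner was used to read a custom Agilent array that had been made double-stranded with Cy5-dUTP primer extension, blocked with 2% BSA, incubated at 25 °C for 1 h with 200 nM protein in PBS, 2% BSA, salmon testes DNA and 50 µM zinc acetate, and washed. The protein was an N-terminal polyhistidine–DsRed transcription factor fusion from E. coli BL21-CodonPlus, purified on Ni–NTA.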

Q: Which binding signal does the source give for “GAGGGCTGCTGTGCTATTCTTCCTGGACATCTCTGGTTCTCGGAGTCACCTAGTGCAG” here?
A: 4540 fluorescence intensity (a.u.)

Q: “TTTAGATGATTCGTCTCTGACTCGATTTTAACAGATTAATCGGAGTCACCTAGTGCAG” was tested. Which binding signal did it give?
A: 3710 fluorescence intensity (a.u.)

Q: “ACAATATGAACCAAAGTGCCTCGGTTCATACACTATCCTTCGGAGTCACCTAGTGCAG” was tested. Which binding signal did it give?
A: 3220 fluorescence intensity (a.u.)

Q: How did the binding signal turn out when “GAGCTTTTGGCACACAAAATGACGTATGCATGTCTTATTACGGAGTCACCTAGTGCAG” was run?
A: 4540 fluorescence intensity (a.u.)

Q: “CCAACGGTAAGTGAGGATTAATCAAGCTTAATCTCACCACCGGAGTCACCTAGTGCAG” was tested. Which binding signal did it give?
A: 3570 fluorescence intensity (a.u.)

Q: How did the binding signal turn out when “TAGTTCGGGGCGTGACACACGTGTACTTCAAAATTCAAAGCGGAGTCACCTAGTGCAG” was run?
A: 3650 fluorescence intensity (a.u.)

Q: For “TTACTCTCAAGAATGATGTGGAATTTGAGCCGTTAAGAAACGGAGTCACCTAGTGCAG”, which binding signal is on record?
A: 3870 fluorescence intensity (a.u.)

Q: How did the binding signal turn out when “GAGCCTTACCGGCTCAGACTTGGCATGACGTGGACGTACACGGAGTCACCTAGTGCAG” was run?
A: 22500 fluorescence intensity (a.u.)

Q: “TGCCATTGCCACCACCTCGCTCTCTCCTTCCTTCTCCGACCGGAGTCACCTAGTGCAG” was tested. Which binding signal did it give?
A: 3350 fluorescence intensity (a.u.)

Q: “GGGCGGAGCTAGAATAAAATAAAGGAGGGTTCCACTCGTTCGGAGTCACCTAGTGCAG” was tested. Which binding signal did it give?
A: 23100 fluorescence intensity (a.u.)

Q: How did the binding signal turn out when “CTGTCATGGGAAACAATGACTTGTGTGGTGGGGCGCCTCACGGAGTCACCTAGTGCAG” was run?
A: 3690 fluorescence intensity (a.u.)

Q: “ATACCACAGATAATTACTGACAAGTCAGTGCAAACCATTGCGGAGTCACCTAGTGCAG” was tested. Which binding signal did it give?
A: 3530 fluorescence intensity (a.u.)

Q: “CGCTGTCTCGTCGCCCTCACGTACGACTTCCATCACGAGCCGGAGTCACCTAGTGCAG” was tested. Which binding signal did it give?
A: 24300 fluorescence intensity (a.u.)

Q: “ATGGATAATAAAAGCATCATATATCCACACGTGGTTAAACCGGAGTCACCTAGTGCAG” was tested. Which binding signal did it give?
A: 3960 fluorescence intensity (a.u.)

Q: With “TCTCGTCCGCCACGTACTTGACGCTGCCCATCAAGGCAGCCGGAGTCACCTAGTGCAG” as the sequence, how does the binding signal read?
A: 8140 fluorescence intensity (a.u.)

Q: “ATCTTTTGCCAGATCACCACGGCATGCCTCTTCCTCCTCCCGGAGTCACCTAGTGCAG” was tested. Which binding signal did it give?
A: 6980 fluorescence intensity (a.u.)

Q: How did the binding signal turn out when “AGTCCGCATCGAGGAATAGGTTGATGTCATCTCCTGTGCTCGGAGTCACCTAGTGCAG” was run?
A: 7100 fluorescence intensity (a.u.)

Q: Which binding signal does the source give for “CGTAAGCTTATCAGCAAGTTTAATAGTATAGCTGGCTGCTCGGAGTCACCTAGTGCAG” here?
A: 21800 fluorescence intensity (a.u.)

Q: How did the binding signal turn out when “TGCGCTCGTGGCGCGCTCTTTTCGCGCCAGGAAAATTTTCCGGAGTCACCTAGTGCAG” was run?
A: 3910 fluorescence intensity (a.u.)

Q: With “TTCTTTATTGCTTACCCTTACTCTTGGTTAACTTCTTCTGCGGAGTCACCTAGTGCAG” as the sequence, how does the binding signal read?
A: 3290 fluorescence intensity (a.u.)

Q: How did the binding signal turn out when “TAGGCTAGTCATTTAAACTGACTCACAGACAAACTGTTTGCGGAGTCACCTAGTGCAG” was run?
A: 4320 fluorescence intensity (a.u.)

Q: How did the binding signal turn out when “ACGGACGTGTTCACTACGATCTGTGGACCCGATACACTGGCGGAGTCACCTAGTGCAG” was run?
A: 3400 fluorescence intensity (a.u.)

Q: For “ACTTTTCGTTGCCGTGTTGGGATGTGCACCCTGATACCCGCGGAGTCACCTAGTGCAG”, which binding signal is on record?
A: 3310 fluorescence intensity (a.u.)

Q: With “CCCTAGCCCTCGCCCTGGTCCGTCCGGCGTGGCGCGCGCTCGGAGTCACCTAGTGCAG” as the sequence, how does the binding signal read?
A: 5150 fluorescence intensity (a.u.)

Q: Which binding signal does the source give for “TGTGTAAACACAACCGTCCGTGACACGTACGTACATGGGGCGGAGTCACCTAGTGCAG” here?
A: 7700 fluorescence intensity (a.u.)

Q: For “TCCTAAGCTAATACGTACTCTACGTGTTAATGGATTTGTTCGGAGTCACCTAGTGCAG”, which binding signal is on record?
A: 3840 fluorescence intensity (a.u.)

Q: Which binding signal does the source give for “CGTGCGGAGATATTTCCGGACGGTGACAACGAAAATATCCCGGAGTCACCTAGTGCAG” here?
A: 3190 fluorescence intensity (a.u.)

Q: Which binding signal does the source give for “TGGACTATTAGGGCATTAGCAGTGCGTCACTTGTATTTGTCGGAGTCACCTAGTGCAG” here?
A: 5550 fluorescence intensity (a.u.)

Q: “GAGTTAACCCATAGACCAGTGCATTGGTGTCACGGGAAACCGGAGTCACCTAGTGCAG” was tested. Which binding signal did it give?
A: 3210 fluorescence intensity (a.u.)

Q: How did the binding signal turn out when “ATGCAGCAAGTGACGTACGCGTGAAGATCATATCGAGCCACGGAGTCACCTAGTGCAG” was run?
A: 3900 fluorescence intensity (a.u.)

Q: How did the binding signal turn out when “GGGCGGCGCGGCGGCGCGCGGAGGGCGACGGCTGACGGGGCGGAGTCACCTAGTGCAG” was run?
A: 5580 fluorescence intensity (a.u.)

Q: With “TCCCCAAGGCGCAAACGCGTGCCCCACCTGTCACCCACACCGGAGTCACCTAGTGCAG” as the sequence, how does the binding signal read?
A: 3920 fluorescence intensity (a.u.)

Q: How did the binding signal turn out when “AAAGCAGATAGTCAGAATGTTGACCTTGCCATCAGTCTTTCGGAGTCACCTAGTGCAG” was run?
A: 7370 fluorescence intensity (a.u.)

Q: Which binding signal does the source give for “GTCGAGGAATCATTTCACCTCTGCCTCTTGTCAGCTTCGCCGGAGTCACCTAGTGCAG” here?
A: 3560 fluorescence intensity (a.u.)

Q: With “ATCGCTCGTGTGGATGCAAGCATAGCCTCATTCTGCCTTGCGGAGTCACCTAGTGCAG” as the sequence, how does the binding signal read?
A: 4060 fluorescence intensity (a.u.)

Q: With “GCACATCCACCACATAGACAAATTCATGTGTTTGCTTTTGCGGAGTCACCTAGTGCAG” as the sequence, how does the binding signal read?
A: 3360 fluorescence intensity (a.u.)

Q: With “TTACACGTTAAGAAAGTGCTAAGTAAACAAGACTGCCTGACGGAGTCACCTAGTGCAG” as the sequence, how does the binding signal read?
A: 17700 fluorescence intensity (a.u.)

Q: For “TCGAGGACGTCGTCGCCGCCAGCTCCGTCGGCGGCAACGGCGGAGTCACCTAGTGCAG”, which binding signal is on record?
A: 31400 fluorescence intensity (a.u.)

Q: “ACAGCGTAGGCTTTTCTTTCACGTCACCACGCGTACGCGACGGAGTCACCTAGTGCAG” was tested. Which binding signal did it give?
A: 6560 fluorescence intensity (a.u.)

Q: For “AGGAGTGTAGGTAATTGGTGCATGTTGCTATCTAGAATGGCGGAGTCACCTAGTGCAG”, which binding signal is on record?
A: 3360 fluorescence intensity (a.u.)

Q: For “AATATGAACTGATAGGATTTGTTTTCACACCATACCAAACCGGAGTCACCTAGTGCAG”, which binding signal is on record?
A: 59700 fluorescence intensity (a.u.)

Q: “GGTGGACATTAGGTCATCAGCACGTGCGAAGTAGGCCTCACGGAGTCACCTAGTGCAG” was tested. Which binding signal did it give?
A: 36600 fluorescence intensity (a.u.)
